Assay [1] deals with T1, SKI (human (endogenous in patient-derived BTSC lines)) (UniProt P12755).
T1 sequence: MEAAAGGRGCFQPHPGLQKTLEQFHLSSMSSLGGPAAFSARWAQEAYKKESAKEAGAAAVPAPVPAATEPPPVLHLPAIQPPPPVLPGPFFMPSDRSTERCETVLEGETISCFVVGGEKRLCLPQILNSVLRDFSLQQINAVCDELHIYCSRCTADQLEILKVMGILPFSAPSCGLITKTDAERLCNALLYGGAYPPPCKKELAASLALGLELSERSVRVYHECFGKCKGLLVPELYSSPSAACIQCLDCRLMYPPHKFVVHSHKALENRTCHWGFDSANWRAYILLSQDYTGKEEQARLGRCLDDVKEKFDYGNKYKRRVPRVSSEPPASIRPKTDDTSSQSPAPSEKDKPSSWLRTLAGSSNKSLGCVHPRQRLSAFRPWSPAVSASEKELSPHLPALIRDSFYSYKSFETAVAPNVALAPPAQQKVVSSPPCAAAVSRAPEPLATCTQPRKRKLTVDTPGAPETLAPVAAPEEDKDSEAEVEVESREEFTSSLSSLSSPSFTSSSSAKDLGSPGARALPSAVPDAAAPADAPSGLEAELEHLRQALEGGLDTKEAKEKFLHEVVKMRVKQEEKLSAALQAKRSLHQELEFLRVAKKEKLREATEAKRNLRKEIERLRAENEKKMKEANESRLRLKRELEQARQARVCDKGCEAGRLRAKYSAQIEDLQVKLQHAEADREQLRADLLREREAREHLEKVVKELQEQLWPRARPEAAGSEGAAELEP
Briefly: co-IP; endogenous proteins of BTSC lines (BT67, BT147); cells dual crosslinked (dithiobis(succinimidyl propionate) 30 min, 1% formaldehyde 10 min); IP buffer 50 mM Tris-HCl pH 8.0, 150 mM NaCl, 1.0 mM EDTA, 0.5% Nonidet P-40; 500 ug extract with 5 ug antibody (HDAC1, HDAC2, SMAD3, SKI or SMAD4) overnight at 4 °C, protein G Dynabeads; also sequential co-IP; cells also treated with romidepsin or DMSO (24, 48, 72 h), with SMAD3 KO, HDAC2 KO or SMAD3 overexpression.

The chains behind the UniProt entries cited, without tags or fusion partners.
UniProt P84022: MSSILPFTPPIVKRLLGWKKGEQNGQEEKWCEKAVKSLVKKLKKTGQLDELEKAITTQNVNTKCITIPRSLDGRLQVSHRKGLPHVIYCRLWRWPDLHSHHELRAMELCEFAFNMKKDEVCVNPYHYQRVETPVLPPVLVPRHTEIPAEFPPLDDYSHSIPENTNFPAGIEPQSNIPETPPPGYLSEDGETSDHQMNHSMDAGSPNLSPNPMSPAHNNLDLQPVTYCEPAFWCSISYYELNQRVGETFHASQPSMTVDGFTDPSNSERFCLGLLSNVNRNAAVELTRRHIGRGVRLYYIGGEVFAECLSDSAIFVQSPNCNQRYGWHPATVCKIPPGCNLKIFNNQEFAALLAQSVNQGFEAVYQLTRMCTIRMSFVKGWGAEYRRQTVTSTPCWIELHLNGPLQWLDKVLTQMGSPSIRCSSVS
UniProt Q13485: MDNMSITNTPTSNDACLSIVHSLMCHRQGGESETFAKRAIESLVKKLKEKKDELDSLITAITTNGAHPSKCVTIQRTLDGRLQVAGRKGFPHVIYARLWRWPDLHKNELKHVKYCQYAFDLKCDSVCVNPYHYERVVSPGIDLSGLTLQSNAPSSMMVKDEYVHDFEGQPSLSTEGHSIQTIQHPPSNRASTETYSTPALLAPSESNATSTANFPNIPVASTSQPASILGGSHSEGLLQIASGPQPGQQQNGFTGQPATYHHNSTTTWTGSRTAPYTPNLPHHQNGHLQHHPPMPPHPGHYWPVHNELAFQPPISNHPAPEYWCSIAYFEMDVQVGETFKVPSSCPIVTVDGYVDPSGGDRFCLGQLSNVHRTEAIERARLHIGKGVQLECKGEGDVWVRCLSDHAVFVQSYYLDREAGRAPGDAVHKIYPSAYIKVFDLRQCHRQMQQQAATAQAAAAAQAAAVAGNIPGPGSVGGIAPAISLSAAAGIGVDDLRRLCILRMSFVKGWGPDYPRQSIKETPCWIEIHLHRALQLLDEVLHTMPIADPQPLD
UniProt Q92769: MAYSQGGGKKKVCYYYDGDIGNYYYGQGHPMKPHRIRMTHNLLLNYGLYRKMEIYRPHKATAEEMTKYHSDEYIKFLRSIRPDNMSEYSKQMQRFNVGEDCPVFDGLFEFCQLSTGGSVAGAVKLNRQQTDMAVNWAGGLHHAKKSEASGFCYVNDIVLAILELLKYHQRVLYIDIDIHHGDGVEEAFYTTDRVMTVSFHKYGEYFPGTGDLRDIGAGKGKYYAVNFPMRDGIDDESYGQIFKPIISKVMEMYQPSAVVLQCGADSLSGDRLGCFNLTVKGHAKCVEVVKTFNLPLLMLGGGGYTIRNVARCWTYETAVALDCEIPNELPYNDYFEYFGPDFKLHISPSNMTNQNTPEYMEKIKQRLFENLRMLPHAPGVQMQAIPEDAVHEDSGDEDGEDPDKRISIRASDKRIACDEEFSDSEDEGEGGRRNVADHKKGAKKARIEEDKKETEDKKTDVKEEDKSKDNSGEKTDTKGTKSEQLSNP
UniProt Q15796: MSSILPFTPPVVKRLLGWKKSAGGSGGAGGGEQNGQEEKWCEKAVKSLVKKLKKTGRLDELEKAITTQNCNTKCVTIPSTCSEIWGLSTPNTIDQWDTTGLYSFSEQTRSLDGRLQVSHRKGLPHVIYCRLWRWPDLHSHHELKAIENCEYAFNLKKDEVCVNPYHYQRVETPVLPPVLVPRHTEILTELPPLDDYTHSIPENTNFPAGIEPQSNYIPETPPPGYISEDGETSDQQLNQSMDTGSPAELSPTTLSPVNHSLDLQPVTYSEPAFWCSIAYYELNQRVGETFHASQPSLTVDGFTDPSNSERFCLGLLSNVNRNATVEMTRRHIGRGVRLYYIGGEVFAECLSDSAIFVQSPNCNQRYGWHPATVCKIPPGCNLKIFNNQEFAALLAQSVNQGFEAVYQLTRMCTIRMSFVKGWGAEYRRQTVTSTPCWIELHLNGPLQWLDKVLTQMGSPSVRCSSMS

Assay [2] concerns the target SMAD3 (human (endogenous in patient-derived BTSC lines)) (UniProt P84022). The description is as above.
Assay [3] deals with SMAD4 (human (endogenous in patient-derived BTSC lines)) (UniProt Q13485). Described as above.
Assay [4] has as its target SMAD3, constitutively overexpressed in BT67 cells (AAVS1/SMAD3+) (UniProt P84022). Described as above.
In assay [5] the target is SMAD3, flag-tagged clone (UniProt P84022). The assay is described as follows: co-IP; dual crosslinked HEK293T/17 cells stably expressing C-terminally flag-tagged SMAD3 or HDAC2 clones or empty vector; precipitation with anti-flag antibody.
Assay [6] has as its target HDAC2 (human (endogenous in patient-derived BTSC lines)) (UniProt Q92769). The assay is described as follows: co-IP; endogenous proteins of BTSC lines (BT67, BT147); cells dual crosslinked (dithiobis(succinimidyl propionate) 30 min, 1% formaldehyde 10 min); IP buffer 50 mM Tris-HCl pH 8.0, 150 mM NaCl, 1.0 mM EDTA, 0.5% Nonidet P-40; 500 ug extract with 5 ug antibody (HDAC1, HDAC2, SMAD3, SKI or SMAD4) overnight at 4 °C, protein G Dynabeads; also sequential co-IP; cells also treated with romidepsin or DMSO (24, 48, 72 h), with SMAD3 KO, HDAC2 KO or SMAD3 overexpression.

In assay [7] the target is T1, SKI (human (endogenous in patient-derived BTSC lines)). Briefly: proximity ligation; in situ PLA (Duolink) in adherent BTSCs fixed in 3.7% formaldehyde; pairs of primary antibodies; PLA foci counted in 30 nuclei; romidepsin or vehicle for 24 h.
Assay [8] has as its target HDAC2 (human (endogenous in patient-derived BTSC lines)) (UniProt Q92769). Described as above.

Results are given in words; binding and its absence hold for the method and conditions named. In cells and extracts the contact can be indirect. Some binding calls cover weakened binding; strength is not graded here.

Turning to HDAC2 (from UniProt Q92769 1-488), the binding result in assay [1], in assay [2], in assay [3] and in assay [4] was “binds” each time.
For the substance “HDAC2 in HEK293T/17 cells (from UniProt Q92769 1-488)”, the binding result in assay [5] is recorded as “binds”.
Take SMAD2 (from UniProt Q15796 1-467): the binding entry in assay [6] is listed as “no binding”.
SMAD3 (from UniProt P84022 1-425): the binding result in assay [7], in assay [8], in assay [1] and in assay [6] was “binds” throughout.
In the case of “phospho-SMAD3 (from UniProt P84022 1-425)”, the binding result in assay [6] is “binds”.

The values above are taken from paper PMC10439933.
